# Screening data, single-dose tests

Amino acid sequences for entries named in this document (tags omitted). Residues count along the entry.
UniProt A4I591, 1-473: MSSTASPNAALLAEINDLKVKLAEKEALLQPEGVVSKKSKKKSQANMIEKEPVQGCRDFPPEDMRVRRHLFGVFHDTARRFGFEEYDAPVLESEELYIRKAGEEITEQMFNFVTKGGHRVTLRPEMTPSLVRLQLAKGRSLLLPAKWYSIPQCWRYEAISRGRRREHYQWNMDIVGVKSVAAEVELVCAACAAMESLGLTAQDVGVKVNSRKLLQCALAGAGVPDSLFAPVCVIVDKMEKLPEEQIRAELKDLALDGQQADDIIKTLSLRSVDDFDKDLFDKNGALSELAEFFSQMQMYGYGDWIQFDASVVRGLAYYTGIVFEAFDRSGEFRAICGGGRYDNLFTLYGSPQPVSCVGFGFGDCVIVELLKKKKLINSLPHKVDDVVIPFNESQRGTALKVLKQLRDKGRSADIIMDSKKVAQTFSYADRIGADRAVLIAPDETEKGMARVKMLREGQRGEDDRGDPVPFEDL
UniProt Q4DA54, 1-478: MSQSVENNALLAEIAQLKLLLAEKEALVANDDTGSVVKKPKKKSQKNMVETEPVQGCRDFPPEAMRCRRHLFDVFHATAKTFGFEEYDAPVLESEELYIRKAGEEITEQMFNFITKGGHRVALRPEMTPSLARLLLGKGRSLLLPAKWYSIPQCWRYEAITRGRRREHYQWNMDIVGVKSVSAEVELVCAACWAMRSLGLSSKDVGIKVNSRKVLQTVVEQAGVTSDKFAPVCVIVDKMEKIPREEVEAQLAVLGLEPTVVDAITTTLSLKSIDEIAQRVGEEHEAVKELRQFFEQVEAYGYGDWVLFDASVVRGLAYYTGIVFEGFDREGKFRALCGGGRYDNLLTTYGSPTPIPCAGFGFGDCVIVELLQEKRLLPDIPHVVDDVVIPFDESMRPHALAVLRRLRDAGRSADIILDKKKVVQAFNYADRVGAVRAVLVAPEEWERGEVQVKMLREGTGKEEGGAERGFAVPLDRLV
UniProt P9WPC5, whole entry: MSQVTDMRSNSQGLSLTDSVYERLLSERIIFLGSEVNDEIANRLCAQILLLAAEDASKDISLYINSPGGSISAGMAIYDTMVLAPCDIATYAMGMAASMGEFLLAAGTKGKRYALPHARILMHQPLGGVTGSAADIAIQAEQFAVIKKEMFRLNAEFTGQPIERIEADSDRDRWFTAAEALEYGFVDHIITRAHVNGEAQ
UniProt P9WPC3, whole entry partner: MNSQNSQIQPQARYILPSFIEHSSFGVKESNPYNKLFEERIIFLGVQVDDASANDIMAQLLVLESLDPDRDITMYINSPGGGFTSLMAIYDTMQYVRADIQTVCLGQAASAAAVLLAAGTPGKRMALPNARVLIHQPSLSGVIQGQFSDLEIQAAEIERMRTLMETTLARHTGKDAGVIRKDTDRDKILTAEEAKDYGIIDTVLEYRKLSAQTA

LiHisRS: 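Enzyme assay of histidyl-tRNA synthetase; the read-out is not stated. Target: Histidine-tRNA ligase, Leishmania infantum (UniProt A4I591). Tested at 30 µM. Higher reads as stronger inhibition (inferred: compounds with an IC50 in retests scored well above the rest). The assay is labelled LdHisRS but filed under L. infantum. Of about 69,000 compounds tested this way, about 410 (0.6%) reached 50% or more in at least one test.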
TcHisRS: 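Enzyme assay of histidyl-tRNA synthetase; the read-out is not stated. Target: Histidine-tRNA ligase, Trypanosoma cruzi CL Brener (UniProt Q4DA54). Compounds at 30 µM. The record gives no direction; compounds that gave an IC50 in retests scored well above the rest, so higher reads as stronger inhibition. About 69,000 compounds were tested under these conditions; 0.045% (about 31) showed 50% or more at least once.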
ClpP1P2: 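Protease assay of ClpP1P2, read by the AMC dye that it sets free. Target: ClpP1P2, Mycobacterium tuberculosis (UniProt P9WPC5 and UniProt P9WPC3). Concentration: 50 µM. Higher reads as stronger inhibition, judged from the few compounds that gave an IC50. Most other retested compounds had strongly negative values. Of about 69,000 compounds tested this way, about 10 (0.015%) reached 50% or more in at least one test.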

The filed quantity is “Percent Effect” (%).
How 0% and 100% were set is not recorded. Most values in the screen are low, and negative values occur.
Compounds were drawn at random from those tested, without regard to their results.

For Cc1cc(C(=O)N2CCC(O)(Cn3c(C)cc4ccncc43)CC2)on1 the result was LiHisRS: 10%; TcHisRS: 8.812%; ClpP1P2: -17.34%.
For CCN1CCC(Cn2ccc3ccc(C(=O)OC)cc3c2=O)C1 (stereo not given) the result was LiHisRS: 12%; TcHisRS: 3.518%; ClpP1P2: -6.668%.
For Cc1noc(C)c1CC(=O)NCc1ccnc(OCC(F)(F)F)c1 the result was LiHisRS: 7.143%; TcHisRS: 1.183%; ClpP1P2: -8.887%.
For O=C(NCCCOCC1CC1)Nc1cccnc1N1CCOCC1 the result was LiHisRS: 19.23%; TcHisRS: 8.021%; ClpP1P2: 8.354%.
For CNC(=O)[C@H]1CC[C@@H]2[C@@H](CCN2C(=O)N(C)C)O1 the result was LiHisRS: 10.34%; TcHisRS: 2.532%; ClpP1P2: -0.1103%.
For O=C(Nc1ccccc1-c1cccs1)N1CCN(CC(F)F)CC1 the result was LiHisRS: 2.857%; TcHisRS: 3.896%; ClpP1P2: 2.794%.
For Cc1cc(C)n2ncc(CN3CCC(Cn4cc(CO)nn4)CC3)c2n1 the result was LiHisRS: 38.67%; TcHisRS: 2.89%; ClpP1P2: -7.415%.
For CN(Cc1ccc(OCC(=O)N2CCOCC2)cc1)S(C)(=O)=O the result was LiHisRS: 6.202%; TcHisRS: 2.381%; ClpP1P2: -6.434%.
For Cc1ccc(NC2(C(=O)NCc3c(C)n[nH]c3C)CCCC2)cc1 the result was LiHisRS: 0%; TcHisRS: 5.682%; ClpP1P2: -7.546%.
For CS(=O)(=O)Nc1ccn(Cc2ccc(F)cc2Cl)n1 the result was LiHisRS: 6.173%; TcHisRS: 0.4464%; ClpP1P2: -35.22%.
For CN1CCN2C(=O)N(C3CCCCC3)C[C@H]2C1 the result was LiHisRS: 10.81%; TcHisRS: 1.493%; ClpP1P2: 3.883%.
For O=C1COc2cc(C(=O)N3CCCC(n4ccnc4)C3)ccc2N1 (stereo not given) the result was LiHisRS: 8.571%; TcHisRS: 9.278%; ClpP1P2: -5.315%.
For CSCC[C@H](N)C(=O)NCc1cc2n(n1)CCCN(C(=O)C1CCC1)C2 the result was LiHisRS: 22.12%; TcHisRS: 1.626%; ClpP1P2: -1.647%.
For COCCn1/c(=N\C(=O)CN(C)S(C)(=O)=O)sc2cccc(F)c21 the result was LiHisRS: 5.085%; TcHisRS: 2.439%; ClpP1P2: 3.569%.
For CN(C)C(=O)C1CN(Cc2ccccn2)CCN(S(C)(=O)=O)C1 (stereo not given) the result was LiHisRS: 7.292%; TcHisRS: 0%; ClpP1P2: -5.256%.
For Cn1cc(C2=CCN(CCCOc3ccc(C(N)=O)cc3)CC2)cn1 the result was LiHisRS: 14.29%; TcHisRS: 3.896%; ClpP1P2: 3.72%.
For Cc1nc(CN2CCCC(N(C)Cc3cscn3)C2)no1 (stereo not given) the result was LiHisRS: 18.67%; TcHisRS: 8.679%; ClpP1P2: 6.353%.
For CN(C)C(=O)n1c(C(=O)NC(C)(C)CO)cc2c1c1ccccc1n2C the result was LiHisRS: 4.587%; TcHisRS: 7.563%; ClpP1P2: -6.275%.
For CN(C)c1nc(O)cc(C2CCN(C(=O)Cc3ccccn3)C2)n1 (stereo not given) the result was LiHisRS: 7.042%; TcHisRS: 5.385%; ClpP1P2: -25.05%.
For CC(C)=CCN1CCN(Cc2ncc[nH]2)[C@H]2CS(=O)(=O)C[C@H]21 the result was LiHisRS: 0%; TcHisRS: 1.667%; ClpP1P2: -21.91%.
For Cc1cc(C)n(CC2CN(Cc3cccnc3)CCO2)n1 (stereo not given) the result was LiHisRS: 15.29%; TcHisRS: 2.242%; ClpP1P2: -13.22%.
For O=C(C1CCS(=O)(=O)CC1)N1CCC(c2ccc(F)cc2)C1 (stereo not given) the result was LiHisRS: 7.895%; TcHisRS: 5.028%; ClpP1P2: 13.79%.
For Cc1ccc(CN2C[C@H](C(=O)N3CCCCO3)[C@@H]3CCO[C@@H]3C2)o1 the result was LiHisRS: 16.67%; TcHisRS: 6.468%; ClpP1P2: -8.436%.
For CCc1cnc(CNC(=O)NCCCO)s1 the result was LiHisRS: 20%; TcHisRS: 6.03%; ClpP1P2: -5.835%.
For C=C(C)CN1CCCC(CNS(C)(=O)=O)C1 (stereo not given) the result was LiHisRS: 9.375%; TcHisRS: -1.657%; ClpP1P2: -7.91%.
For CN1C(=O)C2(CCN(CC3CCC3)C2)c2ccccc21 (stereo not given) the result was LiHisRS: -5.882%; TcHisRS: -1.97%; ClpP1P2: -5.52%.
For CN1CCN(C(=O)N2CCCC(c3nccn3CC3CCC3)C2)CC1 (stereo not given) the result was LiHisRS: 8.434%; TcHisRS: 1.22%; ClpP1P2: -13.4%.
For Cc1nc(C)c(C)c(NCCSc2ccccn2)n1 the result was LiHisRS: 21.37%; TcHisRS: 7.778%; ClpP1P2: 3.702%.
For CCc1nc(CN2CCN(C(=O)c3cncnc3CC)CC2)cs1 the result was LiHisRS: 12.84%; TcHisRS: 7.872%; ClpP1P2: -20.37%.
For CC(C)CN(CC(F)(F)F)S(=O)(=O)c1cc(C(N)=O)n(C)c1 the result was LiHisRS: 22.67%; TcHisRS: 2.646%; ClpP1P2: 4.532%.
For CS(=O)(=O)NC(=O)c1ccn(-c2ccc(Cl)c(Cl)c2)n1 the result was LiHisRS: 5.31%; TcHisRS: 4.464%; ClpP1P2: -15.48%.
For Cc1c(C(=O)N2CCCC(n3nnc4cc(F)ccc43)C2)cnn1C (stereo not given) the result was LiHisRS: 7.292%; TcHisRS: 4.255%; ClpP1P2: -7.777%.
For O=C(NC1CC1)[C@H]1CN(Cc2ccccc2)C[C@@H]1C(=O)c1ccccc1 the result was LiHisRS: 9.79%; TcHisRS: 5.085%; ClpP1P2: -18.23%.
For O=C(NCC1CCOCC1)c1cc(-c2ccncc2)c2cnccc2n1 the result was LiHisRS: 5.714%; TcHisRS: 4.981%; ClpP1P2: -3.852%.

The first 2 entries again:

With Cc1cc(C(=O)N2CCC(O)(Cn3c(C)cc4ccncc43)CC2)on1 the screen gave LiHisRS: 10%; TcHisRS: 8.812%; ClpP1P2: -17.34%.
With CCN1CCC(Cn2ccc3ccc(C(=O)OC)cc3c2=O)C1 (stereo not given) the screen gave LiHisRS: 12%; TcHisRS: 3.518%; ClpP1P2: -6.668%.

From ChEMBL document CHEMBL3988442, “University of Dundee, Small-Polar-MMV Screening Library” (2021).